Source: PubChem BioAssay AID504444 (National Center for Advancing Translational Sciences (NCATS), 2011)
Among all 360,000 compounds or so, about 7,500 (2.1%) were called active. The shares of active, inactive and inconclusive entries below differ from those in the screen. Calls follow the shape of the dose curve; as a rule, active = well fitted inhibition curve with a large enough effect; inconclusive = small, poorly fitted or top-dose-only effect, or effect the other way; inactive = flat fitted curve, though single readings scatter. A potency beside an inconclusive call is a rough fit, not a confirmed value.

test: Nrf2 qHTS screen for inhibitors; conditions: A549 ARE-Fluc reporter, luciferase luminescence, 18-24 h; activity change, negative = inhibition: at 46 µM (top of the series); also: nearly all actives have a fitted effect of over 60% in size
Summary of the method: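 A549 ARE_Fluc cells, 5000/well, 5% FBS OPTI-MEM; compounds in dose-response, 18-24 h at 37 °C/5% CO2; CellTiter-Fluor viability read (Ex 405/Em 525), then BugLite luciferase luminescence = Nrf2 activity.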
% is scaled to controls: 0 for no effect and ±100 for the full control effect; potency is read from the fitted curve at half-maximal effect.

Compound | Potency | activity change, negative = inhibition
CCOC(=O)c1nnsc1-c1ccc(-c2snnc2C(=O)OCC)cc1 | inconclusive: 5.8 µM [falling, full curve, poor fit] | –
NC(=O)[C@@H]1CC2(CC(c3cccc(NC(=O)CC(c4ccccc4)c4ccccc4)c3)=NO2)CN1C(=O)COc1ccc(Cl)cc1 (stereo partly specified) | inconclusive: 16.4 µM [falling, partial curve, poor fit] | –
Cc1ccc(NC(=O)c2cc3c([nH]c2=O)CC(C)(C)CC3=O)c(C)c1 | – | inactive: 12%
Nc1ncc(S(=O)(=O)c2ccc([N+](=O)[O-])cc2)s1 | inconclusive: 8.2 µM [falling, partial curve, poor fit] | –
COC(=O)c1ccc(C#Cc2ccccc2)o1 | inconclusive: 14.6 µM [activator, partial curve] | –
Cc1csc(=Nc2cccnc2)n1CC1CCCCC1 | inconclusive: 6.51 µM [falling, single point] | –
COc1ccccc1NC(=O)CCS(=O)(=O)c1cc2c3c(c1)CCN3C(=O)CC2 | inconclusive: 8.2 µM [activator, partial curve] | –
CCn1c(SCC(=O)Nc2ccc3c(c2)OCCO3)nc2c(c1=O)SC(C)C2 (stereo unspecified) | inconclusive: 0.92 µM [falling, partial curve, poor fit] | –
COC(=O)c1ccc(N2CCN(CC(=O)c3ccc(-c4ccccc4)cc3)CC2)c([N+](=O)[O-])c1 | inconclusive: 2.59 µM [activator, partial curve, poor fit] | –
NNC(=O)c1oc2nc(-c3ccccc3)cc(-c3ccccc3)c2c1N | inconclusive: 23.1 µM [falling, single point] | –
CCOC(=O)c1nn(-c2ccc(C)cc2)cc1C(=O)c1ccccc1 | inconclusive: 20.6 µM [activator, single point] | –
CC(=O)c1ccc(NC(=O)Nc2ccc([N+](=O)[O-])cc2)cc1 | – | inactive: 11.2%
COc1ccccc1NC(=O)c1ccc(C)s1 | inconclusive: 18.4 µM [activator, partial curve] | –
COc1ccc(C2Nc3ccccc3C(=O)N2Cc2ccco2)cc1COc1ccccc1F (stereo unspecified) | inconclusive: 23.1 µM [falling, single point] | –
COc1ccc(/C(C)=N/Nc2nc(C)c(C(C)=O)s2)cc1 | – | inactive: 6.27%
CCC1CCCCN1C(=O)c1nn(-c2ccc(OC)cc2)c(=O)c2c1c1ccccc1n2C (stereo unspecified) | inconclusive: 25.9 µM [activator, partial curve, poor fit] | –
Cc1ccccc1CCNC(=O)C1CCN(c2nc3ccccc3nc2C(F)(F)F)CC1 | inconclusive: 5.8 µM [falling, partial curve] | –
OCCN1CCN(c2ncnc3c2c(-c2ccccc2)cn3-c2ccc(F)cc2)CC1 | inconclusive: 7.31 µM [falling, partial curve, poor fit] | –
CC(=O)c1ccc2c(c1)Cc1cc(C(C)=O)ccc1-2 | inconclusive: 0.82 µM [activator, full curve, poor fit] | –
O=C(CSCc1ccccc1)Nc1ccc(Cl)cn1 | inconclusive: 14.6 µM [activator, partial curve] | –
Cc1cc(=O)[nH]c2nnc(-c3ccc(Cl)cc3)n12 | inconclusive: 6.51 µM [activator, single point] | –

2 entries from above, as labelled records.
CC(=O)c1ccc(NC(=O)Nc2ccc([N+](=O)[O-])cc2)cc1
  activity change, negative = inhibition: inactive: 11.2%
COc1ccccc1NC(=O)c1ccc(C)s1
  Potency: inconclusive: 18.4 µM [activator, partial curve]

Additional structures

Compound | Potency | activity change, negative = inhibition
O=C(O)c1cc(-c2ccc(/C=C3/SC(=S)N(Cc4ccccc4)C3=O)o2)ccc1Cl | – | inactive: 7.77%
COc1ccc(OC)c(S(=O)(=O)N2CCC(C(=O)N(C)Cc3ccccc3)CC2)c1 | inconclusive: 20.6 µM [falling, partial curve, poor fit] | –
CCOc1ccc(C(=O)NCCn2cc(SCC(=O)Nc3ccccc3)c3ccccc32)cc1 | inconclusive: 29.1 µM [falling, single point] | –
CC1CC(C)CN(C2CCCCC2NS(=O)(=O)c2ccc(Cl)cc2)C1 (stereo unspecified) | inconclusive: 18.4 µM [falling, single point] | –
COc1cc(CN(C(=O)c2cccc(C)c2)c2ccccn2)cc(OC)c1OC | – | inactive: 3.31%
CCOC(=O)CSc1nc2c(sc(=S)n2-c2ccccc2OC)c(=O)n1-c1ccccc1OC | – | inactive: -14.5%
CC1CC(C)CN(CCCNS(=O)(=O)c2ccc3c(c2)CCN3C(=O)C2CC2)C1 (stereo unspecified) | – | inactive: 7.37%
Cc1ccc(C2CC(c3ccccc3)=NN2C(=S)Nc2ccccc2)o1 (stereo unspecified) | inconclusive: 2.91 µM [falling, partial curve] | –
CS(=O)(=O)c1ccc2nc(NC(=O)CCS(=O)(=O)c3ccccc3)sc2c1 | inconclusive: 29.1 µM [falling, single point] | –
Cc1cccc(NC(=O)c2cccc(OC(=S)N3CCOCC3)c2)c1 | inconclusive: 29.1 µM [falling, single point] | –
O=C(Cn1nc(C(F)(F)F)c2c1CCC2)Nc1ccc(Cl)cc1 | inconclusive: 3.66 µM [falling, partial curve] | –
COc1ccccc1CNC(=O)C1CCC(CNS(=O)(=O)c2ccc(C)cc2)CC1 (stereo unspecified) | inconclusive: 4.61 µM [activator, full curve, poor fit] | –
O=C(Nc1ccccc1)c1nc2ccccc2s1 | inconclusive: 0.517 µM [activator, partial curve, poor fit] | –
COCCCNC(=O)C1CCC(=O)N(c2ccc3c(c2)OCO3)C1c1ccc(OC)cc1 (stereo unspecified) | – | inactive: 5.35%
C/C=C(/C)C(=O)O[C@@H]1c2c(ccc3ccc(=O)oc23)OC(C)(C)[C@@H]1OC(=O)/C(C)=C\C | inconclusive: 18.4 µM [falling, single point] | –
CCn1c(O)c(N=NC(=O)CNC(=O)c2ccco2)c2ccccc21 | inconclusive: 32.6 µM [activator, partial curve, poor fit] | –
Cc1cccc(NC(=O)Cn2nc(C(F)(F)F)cc2C2CC2)c1 | inconclusive: 23.1 µM [falling, single point] | –
O=C(/C=C/c1ccccc1[N+](=O)[O-])N1CCc2ccccc2C1 | – | inactive: 22.9%
Cc1cc(C)c(OCCn2ccnc2)c(C)c1 | inconclusive: 16.4 µM [activator, partial curve] | –
CCN(Cc1ccccc1)C(=O)CN1C(=O)COc2ccc(S(=O)(=O)N(CC)CC)cc21 | – | inactive: 6.6%
